The whole screen tested about 330,000 compounds, of which about 7,700 (2.3%) were called active. The inconclusive results got no clear call from the source; some entries with a clear call stand among them for comparison. Calls come from the whole dose curve; as a rule, active = well fitted inhibition curve with a large enough effect; inconclusive = small, poorly fitted or top-dose-only effect, or effect the other way; inactive = flat fitted curve, though single readings scatter. A potency beside an inconclusive call is a rough fit, not a confirmed value.
assay: qHTS screen for small molecules that inhibit ELG1-dependent DNA repair in human embryonic kidney (HEK293T) cells expressing luciferase-tagged ELG1; conditions: HEK293T ELG1-luciferase reporter, luminescence, 16 h, DNA damage induced by 5-fluorouridine; series mostly up to 46.1 µM; note: nearly all actives have a fitted effect of over 55% in size
Method in brief: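 Quantitative HTS, concentration-response format. 2,000 cells/well co-treated with 5-fluorouridine and compound, 16 hr in 5% CO2 at 37 °C; ONE-Glo luminescence read after 30 min.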
Potency is the fitted concentration of half-maximal effect.

Compound | Potency
Cc1onc(-c2ccccc2)c1C(=O)N/N=C/c1cn(C)c2ccccc12 | inconclusive: 11.6 µM [inhibitor, partial curve]
COc1ccc(OC)c(C(=O)/C=C/c2cccnc2)c1 | inconclusive: 29.1 µM [inhibitor, single point]
O=C(N/N=C/C(Cl)=C\c1ccccc1)c1cccs1 | inconclusive: 9.2 µM [activator, partial curve]
COc1cc(CN2CCN(S(=O)(=O)c3ccc(NC(C)=O)cc3)CC2)cc(OC)c1O | inactive
O=C1c2ccccc2C(=O)N1CCCc1nc2ccccc2c(=O)n1-c1cccnc1 | inconclusive: 20.6 µM [inhibitor, partial curve, poor fit]
COc1ccccc1CCNC(=O)c1nc(-c2cccs2)no1 | inconclusive: 11.6 µM [activator, partial curve]
O=C(CCc1ccccc1)OCC(=O)c1ccc([N+](=O)[O-])cc1 | inactive
COc1ccc(S(=O)(=O)N2CCCCC2)cc1NC(=O)CN(C)C1CCCCC1 | inactive
COc1cc2cc(C)nc(Cc3cccc4ccccc34)c2cc1OC | inconclusive: 16.4 µM [inhibitor, single point]
COc1ccc(OCCCC(=O)OCC(=O)NNC(=O)c2ccc([N+](=O)[O-])cc2)cc1 | inconclusive: 11.6 µM [activator, single point]
COc1ccc(S(=O)(=O)N/N=C\c2ccc(OC)c(COc3ccc(C)cc3[N+](=O)[O-])c2)cc1 | inconclusive: 29.1 µM [inhibitor, single point]
Cc1ccnc(NC(=O)CCNS(=O)(=O)c2ccc(C)c(C)c2)c1 | inconclusive: 6.51 µM [activator, partial curve]
CN1CCN(c2ccc(Cl)cc2NC(=O)CC2OC(=O)c3ccccc32)CC1 (centres undefined) | inactive
COc1ccc(/C=C/C(=O)c2ccc([N+](=O)[O-])o2)cc1OC | active: 11.6 µM
COc1ccc(C(=O)Nc2cccc(NC(=O)c3cccs3)c2)cc1OC | active: 14.6 µM
O=C(c1ccc(Cl)c(S(=O)(=O)N2CCOCC2)c1)N(c1ccccn1)C1CCCCC1 | inconclusive: 25.9 µM [inhibitor, partial curve, poor fit]
CCOCCCNC(=O)c1ccc(NC(=O)C2=CSCCO2)cc1 | inconclusive: 23.1 µM [activator, partial curve]
O=C1NCCC/C1=N/Nc1cc(F)ccc1F | inconclusive: 16.4 µM [activator, partial curve]
COC(=O)C1=C(C)N=c2s/c(=C/c3cccs3)c(=O)n2C1c1ccc(F)cc1 (centres undefined) | inconclusive: 20.6 µM [inhibitor, single point]
CCCCCCOc1ccc(OCC(O)CN2C(=O)NC(C)(C)C2=O)cc1 (centres undefined) | inconclusive: 16.4 µM [activator, partial curve]
c1ccc2c(c1)ncn2Cc1nnc2sc(-c3ccc4c(c3)OCO4)nn12 | inactive
CC(=O)Nc1cccc(Oc2ncnc3scc(-c4ccccc4)c23)c1 | inactive
O=C(NCc1ccccc1)c1cc2ccccc2o1 | inconclusive: 20.6 µM [activator, partial curve]
COc1ccc(S(=O)(=O)Nc2ccc(S(=O)(=O)N3CCCCC3)cc2)cc1C | inactive
Cc1cc2nc(CCl)cc(=O)n2[nH]1 | inconclusive: 29.1 µM [activator, single point]

2 of the compounds above, with each value named:
COc1ccc(S(=O)(=O)N2CCCCC2)cc1NC(=O)CN(C)C1CCCCC1
  Potency: inactive
Cc1cc2nc(CCl)cc(=O)n2[nH]1
  Potency: inconclusive: 29.1 µM [activator, single point]

The results go on:

Compound | Potency
COc1cc(NC(=O)C2C3CCC(O3)C2C(=O)O)cc(OC)c1 (centres undefined) | inconclusive: 20.6 µM [activator, partial curve]
CC(C)(C)OC(=O)C[C@H]1C/C=C\C[C@@H](CC(=O)N(CCO)Cc2ccccc2)C(=O)NC[C@H](c2ccccc2)OC1=O | active: 18.3 µM
CCCCNC(=O)c1sc(=S)n2c1[nH]c(=O)c1ccc(C(=O)NCCc3ccc(OC)c(OC)c3)cc12 | inactive
CCN(CC)c1ccc(S(=O)(=O)N2CCCCC2)cc1NC(=O)C1CCC1 | inactive
CN(CC(=O)Nc1cc(S(=O)(=O)N2CCCC2)ccc1Cl)Cc1ccc2c(c1)OCO2 | inconclusive: 29.1 µM [inhibitor, single point]
O=C(Nc1ccc2nn(-c3ccccc3)nc2c1)c1ccc2c(c1)OCO2 | inactive
CN(CC(=O)O)Cc1nc2ccccc2[nH]1 | inconclusive: 16.4 µM [activator, partial curve]
CCCCNC(=O)CNC(=S)N(Cc1ccccc1F)C1CCCCC1 | inactive
CCCn1nc(NC(=O)c2cccs2)c2cc3cc(OC)ccc3nc21 | inconclusive: 10 µM [inhibitor, partial curve]
COc1cc2c(cc1OC)CN(CC(=O)Nc1ccc(F)cc1)C(C(=O)O)C2 (centres undefined) | inactive
CN(C)S(=O)(=O)c1cc(NC(=O)CNCCN2CCOCC2)ccc1Cl | inactive
O=C(CNC(=O)c1cccs1)N/N=C/c1ccc(O)cc1O | inconclusive: 5.17 µM [inhibitor, partial curve, poor fit]
Cc1cccc(CS(=O)(=O)Cc2ccc(C(=O)NC(C)c3ccccc3)o2)c1 (centres undefined) | inactive
Cn1ncc(Cl)c1C(=O)N1CCN(c2ccc(F)cc2)CC1 | inactive
O=C(COc1ccccc1)OC(C(=O)c1ccccc1)c1ccccc1 (centres undefined) | inactive
COc1ccccc1CNC(=O)c1ccccc1N | inactive
CCOC(=O)N1CCN(CC(=O)N2CCC(C(N)=O)CC2)CC1 | inactive
COC(=O)Cc1c(C)[nH]n(-c2cc(Cl)cc(Cl)c2)c1=O | inactive
CC12CCC(C(=O)Nc3ccc4c(c3)OCCO4)(OC1=O)C2(C)C (centres undefined) | inconclusive: 23.1 µM [activator, single point]
Cc1cc(OC(C)C(=O)NC2CCN(Cc3ccccc3)CC2)c2c(C)cc(=O)oc2c1 (centres undefined) | inactive
COC(=O)CSc1nc2ccc(C)cc2cc1C#N | inconclusive: 1.03 µM [activator, full curve]
COc1ccccc1NC(=O)CSc1nc2sc(C)c(C)c2c(=O)n1C | active: 14.6 µM
O=c1c2c([N+](=O)[O-])cc([N+](=O)[O-])cc2sn1Cc1ccccc1 | inactive
COc1ccc(NC(=O)CSc2nnc(C)n2N)cc1S(=O)(=O)N1CCCCC1 | inactive
